# Percent effect of library compounds

T. brucei: 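Whole-parasite assay of Trypanosoma brucei over 72 hours; the read-out is not stated. Tested at 30 µM. The record gives no direction; compounds that gave an IC50 in retests scored well above the rest, so higher reads as stronger inhibition. Values scatter widely below zero; nearly all retest evidence comes from the higher of the two concentrations used. Of about 64,000 compounds tested this way, about 940 (1.5%) reached 50% or more in at least one test.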
Toxoplasma: 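Assay of Toxoplasma gondii numbers, read through their beta-galactosidase reporter with a colour substrate. Compounds at 10 µM. Higher reads as fewer parasites (inferred from which compounds were picked for retests). About 67,000 compounds were tested under these conditions; 0.38% (about 260) showed 50% or more at least once.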

Results are given as percent effect. The record does not define 0% and 100%; most values in the screen are far below 50% and negative numbers occur (in some assays of this library far below -100). This is an unselected part of the compounds tested. A dash means the value is not listed here; it may have been measured.

- CCOCc1cncc2c1CCN(S(=O)(=O)c1ccc(C)cc1)C2 : Toxoplasma: -9.808%
- N#Cc1c(N2CCCCC2)nsc1-c1cccnc1 : T. brucei: -20.21%; Toxoplasma: -0.4704%
- Cc1ncc(CNC2CCc3nc(C(C)C)nn3C2)s1 (centres undefined) : T. brucei: -12.77%; Toxoplasma: 4.657%
- CCN(CC(=O)NCc1nc(C2CC2)no1)Cc1ccc(Cl)cc1 : T. brucei: -31.24%; Toxoplasma: 2.812%
- Cc1nc2ccc(C(=O)N3CCC(COc4ccccn4)CC3)cc2[nH]1 : Toxoplasma: 7.494%
- Cn1nnc2c1CCN(S(C)(=O)=O)C2COCC1CC1 (centres undefined) : T. brucei: -41.26%; Toxoplasma: 10.14%
- Cc1oc(C(=O)O)cc1S(=O)(=O)Nc1cc(Br)ccc1Cl : T. brucei: -44.36%; Toxoplasma: 6.705%
- c1cnc(N2CCc3onc(CN4CCOCC4)c3C2)cn1 : T. brucei: -44.68%; Toxoplasma: 4.878%
- CN1CCOC(C)(C(=O)Nc2nccs2)C1 (centres undefined) : T. brucei: -13.02%; Toxoplasma: 26.87%
- CC(Nc1ccn(Cc2ccccn2)n1)C(=O)NC(C)(C)C (centres undefined) : T. brucei: -22.05%; Toxoplasma: 2.291%
- CS(=O)(=O)N1CCC(Oc2ccc(C(=O)NC3CCOC3)cc2Cl)CC1 (centres undefined) : T. brucei: -23.28%; Toxoplasma: 18.08%
- Cc1ccc(OCCCNC(=O)CN(C)c2ccc(C#N)cn2)cc1 : T. brucei: -9.15%; Toxoplasma: 5.988%
- CC(C)n1cnc2c1C(C(=O)NCCO)N(Cc1ccccc1)CC2.O=C(O)C(F)(F)F (centres undefined) : T. brucei: -9.449%; Toxoplasma: 3.718%
- CN1CCC(NC(=O)NCc2csc(Br)c2)CC1 : T. brucei: 20.14%; Toxoplasma: 10.66%
- COc1ccc2[nH]cc(C(=O)CNc3nc(C)cs3)c2c1.I : Toxoplasma: 12.67%
- CC(C)(C(=O)N[C@@H]1CCC[C@@H](O)[C@@H]1O)c1cccc(F)c1 : T. brucei: -3.959%; Toxoplasma: -22.69%
- COc1nc2c(cc1C(=O)N1CCCOC(CN3CCCC3)C1)CCC2 (centres undefined) : T. brucei: -4.428%; Toxoplasma: -15.35%
- [H][C@@]12CS(=O)(=O)C[C@]1([H])N(C(=O)CN(C)CC)CCN2Cc1ccccc1 : T. brucei: -10.04%; Toxoplasma: -11.32%
- CCn1ncc2c1CCCC2NCc1cc(Cl)c(OC)c(OC)c1 (centres undefined) : T. brucei: -6.688%
- COCCC1COC2(CCN(C(C)=O)CC2)C1 (centres undefined) : T. brucei: -11.46%; Toxoplasma: 2.436%
- CS(=O)(=O)c1cccc(S(=O)(=O)NC(=O)CCC2CCCCC2)c1 : T. brucei: -44.86%; Toxoplasma: -1.834%
- Cn1cc(C(=O)Nc2ccc(CC(=O)NC3CC3)cc2)nn1 : T. brucei: -40.36%; Toxoplasma: -14.51%
- COCc1cc(N(Cc2ccsc2)C2CC2)n2ncnc2n1 : T. brucei: 10.37%; Toxoplasma: 14.16%
- CCn1nc(C)c(CNC(=O)c2nnc3ccccc3n2)c1C : T. brucei: -58.92%; Toxoplasma: -8.97%
- Cc1cnn(CC2CCCCN2Cc2c(C)noc2C)c1 (centres undefined) : Toxoplasma: -8.34%
- CC(=O)NCC(=O)N1CCN(CC2CC2)c2ncccc2C1 : T. brucei: 27.54%; Toxoplasma: 4.936%
- O=C(c1coc(-c2ccccc2)n1)N1CCCC1 : T. brucei: -20.12%; Toxoplasma: -6.613%
- O=C(O)C(F)(F)F.[H][C@@]12CCN(c3cnccn3)C[C@]1([H])CN(C(=O)CC1CC1)C2 : T. brucei: 7.582%; Toxoplasma: -0.3168%
- COc1ccccc1C1CNC(=O)c2nc(-c3cnn(C)c3)[nH]c2C1 (centres undefined) : T. brucei: 18.15%; Toxoplasma: -2.654%
- Cc1nnc(CN(C)C(=O)C(CC(C)C)N2CCCCC2=O)n1C (centres undefined) : T. brucei: -29.66%; Toxoplasma: -1.538%

Repeated from the top, 3 entries:

structure,T. brucei,Toxoplasma
CCOCc1cncc2c1CCN(S(=O)(=O)c1ccc(C)cc1)C2,-,-9.808
N#Cc1c(N2CCCCC2)nsc1-c1cccnc1,-20.21,-0.4704
Cc1ncc(CNC2CCc3nc(C(C)C)nn3C2)s1 (centres undefined),-12.77,4.657

Measurements from “University of Dundee, Small-Polar-MMV Screening Library” (2021), ChEMBL document CHEMBL3988442.